{
  "sequences": {"note": "Sequences of proteins named here, by UniProt entry; tags and fusion partners are left off.", "UniProt Q8C863": "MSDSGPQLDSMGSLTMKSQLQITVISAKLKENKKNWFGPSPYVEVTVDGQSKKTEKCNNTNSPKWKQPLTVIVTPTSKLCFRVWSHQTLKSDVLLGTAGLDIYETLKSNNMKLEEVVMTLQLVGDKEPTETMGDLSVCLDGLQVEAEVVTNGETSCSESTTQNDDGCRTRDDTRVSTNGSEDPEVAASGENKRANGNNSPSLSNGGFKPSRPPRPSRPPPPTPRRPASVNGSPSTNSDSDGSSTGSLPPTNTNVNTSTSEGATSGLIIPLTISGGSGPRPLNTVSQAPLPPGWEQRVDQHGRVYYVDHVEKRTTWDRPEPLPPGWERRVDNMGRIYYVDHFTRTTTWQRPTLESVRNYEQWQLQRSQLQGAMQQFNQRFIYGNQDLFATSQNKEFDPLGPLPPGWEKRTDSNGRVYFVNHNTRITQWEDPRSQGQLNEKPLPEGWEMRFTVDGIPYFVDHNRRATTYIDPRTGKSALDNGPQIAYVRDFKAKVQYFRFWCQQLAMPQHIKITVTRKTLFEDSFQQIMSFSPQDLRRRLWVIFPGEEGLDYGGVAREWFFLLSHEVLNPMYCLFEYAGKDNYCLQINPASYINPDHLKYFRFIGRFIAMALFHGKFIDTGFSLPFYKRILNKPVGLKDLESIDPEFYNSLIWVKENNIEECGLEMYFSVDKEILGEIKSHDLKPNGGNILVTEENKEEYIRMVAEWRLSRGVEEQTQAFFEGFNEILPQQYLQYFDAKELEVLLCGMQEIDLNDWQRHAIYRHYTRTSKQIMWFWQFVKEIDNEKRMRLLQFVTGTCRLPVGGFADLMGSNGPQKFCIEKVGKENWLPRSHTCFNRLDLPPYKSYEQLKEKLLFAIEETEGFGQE", "UniProt Q8CFI0": "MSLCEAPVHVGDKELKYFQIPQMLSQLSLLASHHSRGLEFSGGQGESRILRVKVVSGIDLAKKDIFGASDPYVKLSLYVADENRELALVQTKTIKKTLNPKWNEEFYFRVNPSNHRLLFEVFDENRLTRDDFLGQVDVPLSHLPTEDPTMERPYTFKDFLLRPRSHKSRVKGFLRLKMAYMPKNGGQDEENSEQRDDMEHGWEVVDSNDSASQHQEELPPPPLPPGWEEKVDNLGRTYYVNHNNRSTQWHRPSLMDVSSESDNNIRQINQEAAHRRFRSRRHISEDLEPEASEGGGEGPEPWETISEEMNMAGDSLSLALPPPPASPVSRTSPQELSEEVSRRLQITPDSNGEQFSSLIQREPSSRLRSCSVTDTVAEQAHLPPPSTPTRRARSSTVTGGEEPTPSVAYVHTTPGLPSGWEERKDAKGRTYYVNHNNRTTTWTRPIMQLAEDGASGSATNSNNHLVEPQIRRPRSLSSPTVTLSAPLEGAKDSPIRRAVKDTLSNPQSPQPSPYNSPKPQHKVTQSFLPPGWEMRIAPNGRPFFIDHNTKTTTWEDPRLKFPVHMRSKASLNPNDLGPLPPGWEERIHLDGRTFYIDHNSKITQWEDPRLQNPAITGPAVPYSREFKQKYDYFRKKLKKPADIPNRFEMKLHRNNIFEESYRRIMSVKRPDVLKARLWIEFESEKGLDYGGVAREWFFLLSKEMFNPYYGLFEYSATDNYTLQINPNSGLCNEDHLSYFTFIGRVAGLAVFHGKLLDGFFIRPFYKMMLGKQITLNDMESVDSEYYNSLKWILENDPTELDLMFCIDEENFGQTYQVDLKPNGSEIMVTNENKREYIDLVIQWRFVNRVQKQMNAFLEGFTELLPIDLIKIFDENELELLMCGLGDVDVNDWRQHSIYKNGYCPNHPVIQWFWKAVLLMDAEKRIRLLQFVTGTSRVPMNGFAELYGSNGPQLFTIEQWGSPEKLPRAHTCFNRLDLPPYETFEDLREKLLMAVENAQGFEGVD"},
  "source": "paper doi:10.1101/859587",
  "note": "Results are given in words; binding and its absence hold for the method and conditions named. In cells and extracts the contact can be indirect. These calls come from enrichment with a bait or labelling near it, and not all partners need be listed. Tags and fused reporters may be left off the sequences shown.",
  "data": [
    {"biological_target": "T1, GFP-tagged SUSD4 (mouse) (UniProt Q8BH32)", "T1 sequence": "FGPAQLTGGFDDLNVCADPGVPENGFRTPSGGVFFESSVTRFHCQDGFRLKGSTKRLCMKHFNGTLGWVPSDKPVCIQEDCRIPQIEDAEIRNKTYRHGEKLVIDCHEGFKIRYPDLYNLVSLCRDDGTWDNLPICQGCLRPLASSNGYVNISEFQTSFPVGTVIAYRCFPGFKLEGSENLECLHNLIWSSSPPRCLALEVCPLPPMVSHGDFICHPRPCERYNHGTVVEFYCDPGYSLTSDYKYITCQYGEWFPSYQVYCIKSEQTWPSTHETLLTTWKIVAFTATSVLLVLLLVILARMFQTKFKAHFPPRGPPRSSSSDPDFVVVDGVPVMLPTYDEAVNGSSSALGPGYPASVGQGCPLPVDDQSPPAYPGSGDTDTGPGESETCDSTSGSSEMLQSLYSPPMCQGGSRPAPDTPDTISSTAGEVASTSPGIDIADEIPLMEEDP", "test": "affinity purification with mass spectrometry", "values": [
      {"substance": "ITCH (from UniProt Q8C863 1-864) (enzyme)", "binding": "binds"},
      {"substance": "NEDD4L (from UniProt Q8CFI0 1-1004) (enzyme)", "binding": "binds"},
      {"substance": "WWP1 (from UniProt Q8BZZ3 1-918) (enzyme)", "binding": "binds"}
    ]}
  ]
}
